# In PubChem BioAssay AID720504 (National Center for Advancing Translational Sciences (NCATS), 2013):
# Amino acid sequences for entries named in this document (tags omitted).
# UniProt P53350, whole entry, looked up: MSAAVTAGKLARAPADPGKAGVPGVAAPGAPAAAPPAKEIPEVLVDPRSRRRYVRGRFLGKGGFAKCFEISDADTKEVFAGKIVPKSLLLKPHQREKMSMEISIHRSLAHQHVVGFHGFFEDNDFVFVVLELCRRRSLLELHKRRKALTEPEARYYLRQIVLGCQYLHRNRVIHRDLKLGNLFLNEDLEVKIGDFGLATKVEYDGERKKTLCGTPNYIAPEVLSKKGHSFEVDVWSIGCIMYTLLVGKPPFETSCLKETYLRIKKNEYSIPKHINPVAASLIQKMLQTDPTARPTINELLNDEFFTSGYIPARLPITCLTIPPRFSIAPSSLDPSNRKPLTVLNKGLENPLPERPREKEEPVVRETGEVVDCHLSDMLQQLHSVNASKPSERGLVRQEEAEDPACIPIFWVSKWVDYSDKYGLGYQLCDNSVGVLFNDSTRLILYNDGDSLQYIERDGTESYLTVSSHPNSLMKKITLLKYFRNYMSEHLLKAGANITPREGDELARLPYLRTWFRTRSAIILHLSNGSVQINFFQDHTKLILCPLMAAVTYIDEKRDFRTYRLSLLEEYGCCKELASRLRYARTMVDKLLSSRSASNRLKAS
# In all, about 360,000 compounds went through this assay and about 10,000 (2.8%) were called active. Inconclusive means that the source gave no clear call. Such entries were picked first, then a sample of the others. Calls follow the shape of the dose curve; as a rule, active = well fitted inhibition curve with a large enough effect; inconclusive = small, poorly fitted or top-dose-only effect; inactive = flat fitted curve, though single readings scatter. A potency beside an inconclusive call is a rough fit, not a confirmed value.
# Molecular target: Serine/threonine-protein kinase PLK1 (Homo sapiens) (UniProt P53350)
# Test: qHTS for Inhibitors of PLK1-PDB (polo-like kinase 1 - polo-box domain): Primary Screen; also: nearly all actives have a fitted effect of over 65% in size; as to max response, negative = inhibition: series mostly up to about 57 µM
# Settings: Plk1 PBD binding of FITC phosphopeptide, fluorescence polarization
# % is scaled to controls: 0 for no effect and ±100 for the full control effect; potency is read from the fitted curve at half-maximal effect.
SMILES,"max response, negative = inhibition",Potency
O=C(COC(=O)/C=C/c1ccc2c(c1)OCO2)NCc1ccccc1,inactive: 2.64%,–
O=C(NCCc1ccccc1)C(=O)Nc1nccs1,inactive: 0.296%,–
Cc1c(Cc2ccccc2)sc(/N=C/c2c(O)ccc3ccccc23)c1C(N)=O,–,"inconclusive: 26.7 µM [inhibitor, partial curve]"
CC(C)(C)c1ccc(OCC(=O)NNC(=S)NC(=O)c2ccco2)c(Br)c1,–,"inconclusive: 21.2 µM [inhibitor, partial curve]"
COc1cc2cc(Oc3ccc4ccc(=O)oc4c3)c(=O)oc2cc1O[C@@H]1O[C@H](CO)[C@@H](O)[C@H](O)[C@H]1O,–,"inconclusive: 26.7 µM [inhibitor, single point]"
COc1cc(NS(=O)(=O)c2ccc(N/C=C(\C#N)c3nc4cc(Cl)ccc4o3)cc2)nc(OC)n1,–,"inconclusive: 26.7 µM [inhibitor, single point]"
C=C(Br)Cn1c(CC(C)C)nc2ccccc21,inactive: 1.78%,–
CC1Nc2nc(N(C)C)[nH]c(=O)c2NC1C (stereo not drawn),–,"inconclusive: 26.7 µM [inhibitor, single point]"
Cc1nc(C(=O)N2CCCC(C(=O)c3ccc(Cl)cc3)C2)cs1 (stereo not drawn),–,active: 26.7 µM
O=C(NC(=S)N1CCN(c2nc(-c3ccccc3)cs2)CC1)c1cncc(Br)c1,inconclusive: -33% [inhibitor],–
CNC(=O)c1sc(NCc2ccccc2OC)nc1C,–,"inconclusive: 37.7 µM [inhibitor, partial curve]"
Cc1cc2nc(-c3ccco3)c(Cc3cccc(F)c3)n2c(C)c1Br,–,"inconclusive: 18.9 µM [inhibitor, partial curve]"
COC1Cc2ccccc2N(C(=O)N2CCN(CCO)CC2)c2ccccc21 (stereo not drawn),–,"inconclusive: 21.2 µM [inhibitor, partial curve]"
COc1ccc(C(=S)N2CCC(C(N)=O)CC2)cc1Br,–,active: 18.9 µM
O=C(O)c1ccc(-c2ncc[nH]2)cc1,–,"inconclusive: 37.7 µM [inhibitor, single point]"
O=C(NCc1ccc2c(c1)OCO2)c1nc(S(=O)(=O)Cc2ccccc2)ncc1Cl,–,"inconclusive: 42.3 µM [inhibitor, partial curve, poor fit]"
COc1ccc(N2CCN(C(c3cccs3)C(C)NC(=O)C(=O)N3CCCC3)CC2)cc1 (stereo not drawn),–,"inconclusive: 26.7 µM [inhibitor, partial curve, poor fit]"
COc1ccc(C(=O)C2CCCN(C(=O)c3cc4nc(C)cc(C)n4n3)C2)cc1F (stereo not drawn),–,"inconclusive: 18.9 µM [inhibitor, partial curve]"
COc1ccc(-n2[nH]c(C)cc2=O)cc1,inactive: -5.34%,–
CCCNC(=O)C1(C)CCN(Cc2ccc(Cl)c(Cl)c2)C1 (stereo not drawn),inactive: -1.65%,–
Cn1c(=O)c2c(nc(OCCc3ccccc3)n2C)n(C)c1=O,–,"inconclusive: 23.8 µM [inhibitor, single point]"
Cc1cc2c(SCC(=O)Nc3cccc(O)c3)ncnc2s1,–,"inconclusive: 37.7 µM [inhibitor, single point]"

# One compound at a time (already shown). Values in the order: max response, negative = inhibition | Potency
# C=C(Br)Cn1c(CC(C)C)nc2ccccc21 is entered as inactive: 1.78% | –
# O=C(NC(=S)N1CCN(c2nc(-c3ccccc3)cs2)CC1)c1cncc(Br)c1 is entered as inconclusive: -33% [inhibitor] | –
# COc1ccc(N2CCN(C(c3cccs3)C(C)NC(=O)C(=O)N3CCCC3)CC2)cc1 (stereo not drawn) is entered as – | inconclusive: 26.7 µM [inhibitor, partial curve, poor fit]
# Cc1nc(C(=O)N2CCCC(C(=O)c3ccc(Cl)cc3)C2)cs1 (stereo not drawn) is entered as – | active: 26.7 µM

# Next records follow.

SMILES,"max response, negative = inhibition",Potency
CN(C1=C(N2CCCCC2)C(=O)c2ccccc2C1=O)c1ccccc1,inactive: -8%,–
Cn1c(SCC(=O)c2ccc3c(c2)OCCO3)nnc1C1CC1,–,"inconclusive: 21.2 µM [inhibitor, partial curve]"
CCOC(=O)CSc1nc(-c2ccncc2)ccc1C#N,–,"inconclusive: 29.9 µM [inhibitor, single point]"
CC(=NNS(=O)(=O)c1cccc([N+](=O)[O-])c1)c1ccc(-n2ccnc2)cc1,–,active: 18.9 µM
O=C(OCCN1CCCCC1)c1cc2ccccc2o1,–,"inconclusive: 37.7 µM [inhibitor, single point]"
COc1ccccc1C(=O)NNc1ncc(C)s1,–,"inconclusive: 21.2 µM [inhibitor, single point]"
Cc1cc2oc(=O)c(CC(=O)NCCCO)c(C)c2c2occ(C(C)(C)C)c12,inactive: 6.68%,–
Cc1ccc(-c2csc(N3CCN(c4ccc5nc(-c6ccncc6)n(CCN6CCCCC6)c5c4)CC3)n2)cc1,–,"inconclusive: 29.9 µM [inhibitor, partial curve]"
COCCN=C1NN=C(c2ccc(NC(C)=O)cc2)CS1,–,"inconclusive: 37.7 µM [inhibitor, single point]"
COc1cccc(C2C(C(=O)c3cccs3)=C(O)C(=O)N2CCN(C)C)c1OC (stereo not drawn),–,"inconclusive: 33.6 µM [inhibitor, partial curve]"
O=C(NCc1cc(C(F)(F)F)ccc1Cl)c1cccc2c1C(=O)c1ccc(N3CCCCC3)cc1S2(=O)=O,–,"inconclusive: 33.6 µM [inhibitor, single point]"
CCCC(=O)NC(=S)Nc1sc2c(c1C(N)=O)CCC2,–,"inconclusive: 23.8 µM [inhibitor, partial curve]"
CCc1nnnn1-c1ccc([N+](=O)[O-])cc1C,–,"inconclusive: 26.7 µM [inhibitor, single point]"
NC(=O)c1sc2nc(-c3ccccc3)c3c(c2c1N)CCCC3,–,"inconclusive: 37.7 µM [inhibitor, single point]"
Clc1cccc(C2Nc3cccc4cccc(c34)N2)c1,–,"inconclusive: 26.7 µM [inhibitor, partial curve]"
COc1ccc(-c2cc(NC=O)c3ncc(-c4cccc(C(F)(F)F)c4)n3c2)cc1OC,–,"inconclusive: 18.9 µM [inhibitor, partial curve]"
NS(=O)(=O)c1ccc(CCNC(=O)CSc2nc3ccsc3c(=O)n2C2CC2)cc1,inactive: -1.81%,–
CCOC(=O)c1c(C)[nH]c(C)c1C(=O)CSc1nc(N)cc(N)n1,–,"inconclusive: 23.8 µM [inhibitor, single point]"
Nc1nc(Nc2ccc(Cl)cc2)nc(NCc2ccco2)c1[N+](=O)[O-],inactive: 2.59%,–
Fc1ccc(-c2n[nH]c(=S)n2-c2ccc3c(c2)OCCO3)cc1,inactive: -28.7%,–
O=C(/C=C/c1ccc(Br)o1)NCc1ccccc1,–,"inconclusive: 29.9 µM [inhibitor, single point]"
